Assay [1] has as its target T1, GFP-DDHD2 (UniProt D3ZJ91).
T1 sequence: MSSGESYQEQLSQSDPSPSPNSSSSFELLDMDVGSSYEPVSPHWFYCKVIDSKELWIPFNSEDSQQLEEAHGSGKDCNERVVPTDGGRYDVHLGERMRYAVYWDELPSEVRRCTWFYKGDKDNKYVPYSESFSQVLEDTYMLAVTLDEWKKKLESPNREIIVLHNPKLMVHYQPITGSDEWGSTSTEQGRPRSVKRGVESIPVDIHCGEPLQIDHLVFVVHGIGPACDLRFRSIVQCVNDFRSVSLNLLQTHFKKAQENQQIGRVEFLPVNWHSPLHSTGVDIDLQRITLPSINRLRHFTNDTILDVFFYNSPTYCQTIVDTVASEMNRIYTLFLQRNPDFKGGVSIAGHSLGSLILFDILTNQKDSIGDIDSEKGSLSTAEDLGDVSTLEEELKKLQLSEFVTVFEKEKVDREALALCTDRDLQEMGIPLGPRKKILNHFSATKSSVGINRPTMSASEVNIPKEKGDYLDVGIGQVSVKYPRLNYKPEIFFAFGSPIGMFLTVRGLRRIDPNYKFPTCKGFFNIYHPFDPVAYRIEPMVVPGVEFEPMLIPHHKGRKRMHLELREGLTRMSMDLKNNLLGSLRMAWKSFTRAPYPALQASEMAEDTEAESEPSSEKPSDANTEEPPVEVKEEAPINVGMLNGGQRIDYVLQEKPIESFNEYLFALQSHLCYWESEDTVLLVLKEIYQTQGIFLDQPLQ
The assay can be described thus: affinity purification with mass spectrometry.

Chains of the proteins cited; added tags and fusions are not shown.
UniProt O35274: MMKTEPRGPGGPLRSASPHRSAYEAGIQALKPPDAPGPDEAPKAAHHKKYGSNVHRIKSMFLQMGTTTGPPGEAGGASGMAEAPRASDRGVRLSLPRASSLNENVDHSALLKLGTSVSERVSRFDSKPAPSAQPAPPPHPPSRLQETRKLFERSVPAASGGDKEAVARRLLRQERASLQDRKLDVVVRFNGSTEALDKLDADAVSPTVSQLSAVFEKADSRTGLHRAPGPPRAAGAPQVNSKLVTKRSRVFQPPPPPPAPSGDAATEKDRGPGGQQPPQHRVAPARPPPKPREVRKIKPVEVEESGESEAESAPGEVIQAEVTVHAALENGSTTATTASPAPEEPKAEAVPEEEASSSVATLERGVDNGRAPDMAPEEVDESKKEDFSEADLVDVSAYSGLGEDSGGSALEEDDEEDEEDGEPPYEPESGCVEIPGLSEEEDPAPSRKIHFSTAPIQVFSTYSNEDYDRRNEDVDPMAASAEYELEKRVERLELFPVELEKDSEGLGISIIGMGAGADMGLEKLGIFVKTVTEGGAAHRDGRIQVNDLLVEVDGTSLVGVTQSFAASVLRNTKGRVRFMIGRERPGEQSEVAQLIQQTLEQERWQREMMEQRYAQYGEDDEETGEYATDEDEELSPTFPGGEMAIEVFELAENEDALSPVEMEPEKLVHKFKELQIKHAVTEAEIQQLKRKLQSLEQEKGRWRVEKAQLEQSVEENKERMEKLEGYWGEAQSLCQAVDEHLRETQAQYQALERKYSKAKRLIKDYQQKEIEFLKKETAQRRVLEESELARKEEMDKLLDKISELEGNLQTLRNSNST
UniProt P61765: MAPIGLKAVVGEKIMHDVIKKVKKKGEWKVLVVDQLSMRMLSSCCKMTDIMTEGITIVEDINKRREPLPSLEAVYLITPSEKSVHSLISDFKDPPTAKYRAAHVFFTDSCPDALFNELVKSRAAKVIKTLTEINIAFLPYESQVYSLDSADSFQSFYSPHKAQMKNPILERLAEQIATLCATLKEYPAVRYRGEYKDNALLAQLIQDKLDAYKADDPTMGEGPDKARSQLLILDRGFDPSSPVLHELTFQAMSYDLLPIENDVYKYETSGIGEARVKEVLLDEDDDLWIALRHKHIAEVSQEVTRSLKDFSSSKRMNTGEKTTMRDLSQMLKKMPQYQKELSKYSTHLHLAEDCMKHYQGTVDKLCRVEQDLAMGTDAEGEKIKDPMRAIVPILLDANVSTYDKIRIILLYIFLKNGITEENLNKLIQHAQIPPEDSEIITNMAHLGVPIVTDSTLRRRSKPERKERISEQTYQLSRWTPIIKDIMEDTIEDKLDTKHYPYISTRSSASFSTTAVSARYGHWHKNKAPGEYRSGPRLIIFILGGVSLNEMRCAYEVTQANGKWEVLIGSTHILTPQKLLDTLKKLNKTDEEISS

Assay [2] has as its target T1, GFP-DDHD2. The experiment in a line: affinity purification with mass spectrometry. The source holds these as a separate data set.

These results are taken from doi:10.1101/2023.05.11.540316.

Like-named read-outs stand apart in the source and are kept apart here. Results are given in words; binding and its absence hold for the method and conditions named. In cells and extracts the contact can be indirect. Here binding means that the protein was enriched with, or labelled near, the bait; the list need not be complete. Where a sequence is shown, tags or fusion partners need not be part of it.

As for Ppp1r9b (from UniProt O35274 1-817), the binding entry with GFP-DDHD2 [1] is given as “binds”.

For the substance “Syntaxin-binding protein 1 (STXBP1), endogenous in PC12 cells (from UniProt P61765 1-594)”, the binding result in the assay with GFP-DDHD2 [2] and in the assay with GFP-DDHD2 [1] was “binds” each time.
